Data taken from ChEMBL document CHEMBL3988442, “University of Dundee, Small-Polar-MMV Screening Library” (2021).

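Whole-parasite assay of Trypanosoma brucei over 72 hours; the read-out is not stated. Concentration: 30 µM. Direction is inferred from retests: higher values go with stronger inhibition. Values scatter widely below zero; nearly all retest evidence comes from the higher of the two concentrations used. Size under these conditions: about 64,000 compounds, about 940 of them at 50% or above in at least one test.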

Each number is a percent effect as filed.
How 0% and 100% were set is not recorded. Most values in the screen are low, and negative values occur.
The compounds are a random part of those screened.

- O=C(Nc1ccnc(OC2CCOC2)c1)C1CCC1 (centres undefined) : -26.53%
- CCc1nc(NS(=O)(=O)c2cc(C)ccc2Br)no1 : 44.74%
- O=C(NCC1CC(=O)N(CCc2ccccc2)C1)c1ccc[nH]1 (centres undefined) : -27.98%
- COCCOc1ccc(-c2noc([C@@H]3CCCN3)n2)cn1 : -30.4%
- CCc1ccc2c(C3CN(S(C)(=O)=O)C3)ncn2c1 : 27.82%
- [H][C@@]12C[C@H](NC(=O)c3cc(C)ccc3NC)CN1CCN(C)C2 : -19.19%
- O=C(C(c1ccc(F)cc1)N1CCCCC1)N1CCn2cncc2C1 (centres undefined) : -3.218%
- Cc1ccccc1C(C(=O)NCCn1cccc1)N(C)C (centres undefined) : 3.952%
- O=C(NCCN1CCOCC1)c1ccc(-n2ccc3ccccc32)s1 : 63.33%
- CCC1=NC(SCC(=O)c2ccc(OC)cc2)c2cc(CC)sc2N1 (centres undefined) : -23.5%
- CN(CC1COc2ccccc2O1)C(=O)CCn1cncn1 (centres undefined) : 9.252%
- O=C(O)CC1COCCN1Cc1ccccc1-c1ccccc1 (centres undefined) : -16.08%
- CCN(Cc1nc2c(cnn2C)c(=O)[nH]1)Cc1ccco1 : 0.05241%
- CC(O)CN1CCN(C(=O)c2ccc(CN(C)C)cc2)CC1 (centres undefined) : -4.476%
- CCc1ccc(C(=O)Nc2ccc3c(c2)N(C)CCN(C)C3)o1 : -2.445%
- Cc1cc(N(C)CCn2ccnc2C)n2nccc2n1 : 7.635%
- Cc1noc(C)c1CC(=O)N1CC[C@@](C)(O)[C@H](Oc2ccccc2)C1 : -16.16%
- Cc1nn(C)c(C)c1-c1ccc(=O)n(C(C)C(=O)NC2CC2)n1 (centres undefined) : -13.92%
- NCCCn1nc(C(F)(F)F)c2c1CCC2 : -5.548%
- O=C(O)c1ccccc1-c1cnc(CNC(=O)C2CCOCC2)nc1 : -45.6%
- CCN(Cc1cccc(Cl)c1)Cn1nc(C)c2c(C)onc2c1=O : -37.88%
- [H][C@]12CC[C@]([H])(CN(Cc3cccnc3N)C1)N(CC=C(C)C)C2=O : -21.41%
- CCN(CC)C1(Cc2cc(-c3ccccn3)on2)COC1 : -8.468%
- CCOc1ccc(NS(=O)(=O)c2cc(C)c(C(=O)O)s2)c(C)c1 : -15.31%
- O=S(=O)(NC1=NCN(CCc2cccs2)CN1)c1ccccc1 : 39.48%
- OC(CN1CCCCc2ccccc21)Cn1cccn1 (centres undefined) : -8.701%
- Cc1ccn2cc(C(=O)N3CCCC(Cn4cc(CO)nn4)C3)nc2c1 (centres undefined) : -16.32%
- Cc1ccc(CN(C)C(=O)CN2CCCC2Cn2cccn2)o1 (centres undefined) : 3.951%
- CCN(CC1CCCO1)C(=O)Nc1cc(OC)c(OC)cc1C (centres undefined) : 7.682%
- Cc1cccc(NC(=O)CN(C)C(=O)c2ccc(OC(C)C)nc2)n1 : -26.98%
- O=C(O)C(F)(F)F.[H][C@@]12CCN(Cc3ccsc3)C[C@@]1([H])[C@H](C(=O)NC)CCO2 : -300.6%

Some entries from above, unchanged:

{"structure": "Cc1ccc(CN(C)C(=O)CN2CCCC2Cn2cccn2)o1", "stereo": "centres undefined", "Percent Effect": 3.951}
{"structure": "CC(O)CN1CCN(C(=O)c2ccc(CN(C)C)cc2)CC1", "stereo": "centres undefined", "Percent Effect": -4.476}